Measurements taken from paper PMC4550056.
Results are given in words; binding and its absence hold for the method and conditions named. For part of these data: In cells and extracts the contact can be indirect. Some entries that bind do so weakly or less than the wild type. For part of these data: Where a sequence is shown, tags or fusion partners need not be part of it.

The chains behind the UniProt entries cited, without tags or fusion partners.
UniProt Q92547: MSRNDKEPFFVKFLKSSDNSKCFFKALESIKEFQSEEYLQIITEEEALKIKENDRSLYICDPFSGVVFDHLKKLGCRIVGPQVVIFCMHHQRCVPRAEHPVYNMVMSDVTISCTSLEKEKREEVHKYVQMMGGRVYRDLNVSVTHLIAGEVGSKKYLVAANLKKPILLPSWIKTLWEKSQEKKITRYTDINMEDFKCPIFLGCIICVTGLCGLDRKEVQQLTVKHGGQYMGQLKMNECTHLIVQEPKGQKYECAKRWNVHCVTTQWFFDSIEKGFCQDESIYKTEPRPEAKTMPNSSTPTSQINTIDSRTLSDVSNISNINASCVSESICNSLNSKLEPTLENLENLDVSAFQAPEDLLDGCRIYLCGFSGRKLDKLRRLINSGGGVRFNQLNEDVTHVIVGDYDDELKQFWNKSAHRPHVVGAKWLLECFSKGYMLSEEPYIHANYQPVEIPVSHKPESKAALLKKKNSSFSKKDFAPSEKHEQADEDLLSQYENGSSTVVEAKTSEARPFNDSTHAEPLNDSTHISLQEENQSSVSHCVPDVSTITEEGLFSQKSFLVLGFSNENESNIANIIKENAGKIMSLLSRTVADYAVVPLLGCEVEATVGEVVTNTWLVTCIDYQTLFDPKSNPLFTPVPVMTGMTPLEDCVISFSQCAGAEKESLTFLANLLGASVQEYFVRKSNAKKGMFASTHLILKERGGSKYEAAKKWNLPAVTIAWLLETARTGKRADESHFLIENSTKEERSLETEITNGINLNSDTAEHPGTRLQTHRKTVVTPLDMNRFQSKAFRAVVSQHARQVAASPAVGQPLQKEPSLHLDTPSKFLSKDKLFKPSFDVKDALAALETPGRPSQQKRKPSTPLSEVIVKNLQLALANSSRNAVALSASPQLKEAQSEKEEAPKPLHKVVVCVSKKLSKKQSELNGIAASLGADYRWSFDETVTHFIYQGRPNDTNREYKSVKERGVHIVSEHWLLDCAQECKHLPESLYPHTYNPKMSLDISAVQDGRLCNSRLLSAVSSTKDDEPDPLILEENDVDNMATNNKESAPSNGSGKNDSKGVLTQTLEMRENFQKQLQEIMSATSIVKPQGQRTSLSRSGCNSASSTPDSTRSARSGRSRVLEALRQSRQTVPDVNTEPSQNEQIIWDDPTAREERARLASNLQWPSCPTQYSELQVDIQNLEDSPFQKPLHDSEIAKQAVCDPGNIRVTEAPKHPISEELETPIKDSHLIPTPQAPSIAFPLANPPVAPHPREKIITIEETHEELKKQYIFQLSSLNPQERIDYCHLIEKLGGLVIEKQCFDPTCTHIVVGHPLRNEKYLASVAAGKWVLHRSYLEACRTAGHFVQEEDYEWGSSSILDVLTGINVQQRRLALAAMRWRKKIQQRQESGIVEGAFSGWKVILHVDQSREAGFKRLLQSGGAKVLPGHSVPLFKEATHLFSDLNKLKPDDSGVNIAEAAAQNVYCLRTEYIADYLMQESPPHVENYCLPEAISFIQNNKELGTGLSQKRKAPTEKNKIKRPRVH

Experiments:
[1] = biological target: GST-tagged human DNA topoisomerase II-binding protein 1 (GST-hTopBP1), expressed in HEK293 cells (human) (UniProt Q92547); assay: co-IP; HEK293 cells co-transfected for 24 h; lysates precipitated with anti-GST antibody and protein A/G PLUS-agarose beads; blotted with anti-c-Myc and anti-GST
[2] = biological target: GST-hTopBP1, bacterially expressed (human) (UniProt Q92547); assay: pull-down; GST or GST-hTopBP1 on glutathione Sepharose beads, mixed with purified His-hMYH (1.95 μg/μl) in PBS, 16 h at 4 °C; eluted with reduced glutathione; blotted with His and GST antibodies; both purified
[3] = biological target: human DNA topoisomerase II-binding protein 1 (hTopBP1), endogenous (human (endogenous in HEK293)) (UniProt Q92547); assay: co-IP; endogenous proteins; HEK293 lysates precipitated with anti-hTopBP1 antibody (ImmunoCruz IP/WB Optima), 16 h at 4 °C; cells untreated or treated with 20 mM HU for 1 or 3 h; blotted with anti-hMYH and anti-hTopBP1

B1: c-Myc-tagged human mutY homolog (c-Myc-hMYH), full length (protein, UniProt Q9UIF7 1-546)
chain: MTPLVSRLSRLWAIMRKPRAAVGSGHRKQAASQEGRQKHAKNNSQAKPSACDGMIAECPGAPAGLARQPEEVVLQASVSSYHLFRDVAEVTAFRGSLLSWYDQEKRDLPWRRRAEDEMDLDRRAYAVWVSEVMLQQTQVATVINYYTGWMQKWPTLQDLASASLEEVNQLWAGLGYYSRGRRLQEGARKVVEELGGHMPRTAETLQQLLPGVGRYTAGAIASIAFGQATGVVDGNVARVLCRVRAIGADPSSTLVSQQLWGLAQQLVDPARPGDFNQAAMELGATVCTPQRPLCSQCPVESLCRARQRVEQEQLLASGSLSGSPDVEECAPNTGQCHLCLPPSEPWDQTLGVVNFPRKASRKPPREESSATCVLEQPGALGAQILLVQRPNSGLLAGLWEFPSVTWEPSEQLQRKALLQELQRWAGPLPATHLRHLGEVVHTFSHIKLTYQVYGLALEGQTPVTTVPPGARWLTQEEFHTAAVSTAMKKVFRVYQGQQPGTCMGSKRSQVSSPCSRKKPRMGQQVLDNFFRSHISTDAHSLNSAAQ
binding [1]: binds

B2: His-hMYH, bacterially expressed (protein, UniProt Q9UIF7 1-546)
chain: B1 chain
binding [2]: binds

B3: human mutY homolog (hMYH), endogenous (protein, UniProt Q9UIF7 1-546)
chain: B1 chain
binding [3]: binds
